Experiment [1] has as its target T1, aquaporin1 (AQP1) (human (endogenous in astrocytoma tissue)) (UniProt P29972).
T1 sequence: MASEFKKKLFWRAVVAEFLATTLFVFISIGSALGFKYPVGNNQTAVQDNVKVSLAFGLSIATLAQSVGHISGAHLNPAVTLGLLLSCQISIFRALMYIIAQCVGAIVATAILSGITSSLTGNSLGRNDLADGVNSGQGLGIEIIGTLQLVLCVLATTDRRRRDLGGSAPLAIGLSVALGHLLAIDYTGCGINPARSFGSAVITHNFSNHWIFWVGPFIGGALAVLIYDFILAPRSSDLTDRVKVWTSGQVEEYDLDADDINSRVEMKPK
As to the kind of experiment: co-IP; astrocytoma tissue lysate in CO-IP lysis buffer (pH 7.4), precleared with Protein A, supernatant divided into three groups with different antibodies; Western blot. In general terms: Immunoblotting shows a protein as a band on a membrane.

Chains of the proteins cited; added tags and fusions are not shown.
UniProt P35222: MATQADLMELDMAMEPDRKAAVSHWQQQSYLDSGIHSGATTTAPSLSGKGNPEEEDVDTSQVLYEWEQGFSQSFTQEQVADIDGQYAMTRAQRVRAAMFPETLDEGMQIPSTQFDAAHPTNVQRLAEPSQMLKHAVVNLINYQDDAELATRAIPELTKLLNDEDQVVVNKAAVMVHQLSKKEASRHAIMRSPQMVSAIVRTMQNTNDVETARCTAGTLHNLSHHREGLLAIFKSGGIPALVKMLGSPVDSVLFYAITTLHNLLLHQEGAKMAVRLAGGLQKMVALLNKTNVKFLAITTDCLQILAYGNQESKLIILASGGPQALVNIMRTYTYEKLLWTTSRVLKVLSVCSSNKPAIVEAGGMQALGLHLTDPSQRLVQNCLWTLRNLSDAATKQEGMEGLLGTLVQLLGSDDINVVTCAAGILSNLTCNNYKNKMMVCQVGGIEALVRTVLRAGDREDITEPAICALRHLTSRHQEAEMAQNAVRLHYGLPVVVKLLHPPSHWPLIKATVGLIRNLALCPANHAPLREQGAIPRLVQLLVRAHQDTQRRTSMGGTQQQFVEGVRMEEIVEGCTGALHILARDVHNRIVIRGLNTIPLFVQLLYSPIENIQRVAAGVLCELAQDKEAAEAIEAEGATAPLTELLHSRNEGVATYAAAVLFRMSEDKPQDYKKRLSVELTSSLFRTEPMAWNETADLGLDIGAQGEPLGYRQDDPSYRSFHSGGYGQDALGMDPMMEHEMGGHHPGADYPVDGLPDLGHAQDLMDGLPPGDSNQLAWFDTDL

For experiment [2], the target named is T2, 3×Flag-AQP1 fusion protein (human) (UniProt P29972).
T2 sequence: T1 sequence
The experiment can be described thus: co-IP; 3×Flag-AQP1/LN229 cell lysate in CO-IP lysis buffer (pH 7.4), immunopurified with anti-Flag M2 affinity gel, eluted with Flag peptides; 3×Flag-vector/LN229 as control; Western blot.

The source of these data is PMC5725103.

These are yes or no findings as the source states them, for the method shown. In cells and extracts the contact can be indirect. Some binding calls cover weakened binding; strength is not graded here. For some assays here: Sequences can lack the tags named with a protein.

Regarding β-catenin (from UniProt P35222 1-781), the binding result in experiment [1] and in experiment [2] was “binds” throughout.
